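A panel of P. falciparum strains inside erythrocytes is exposed to compounds for three days, then a DNA-binding dye reports the amount of parasite DNA.
Each compound was titrated across a series from about 0.000037 to 29 µM.
The number is the fitted AC50, the concentration giving a half-maximal change in signal; a lower value means higher potency, whether the curve shows a decrease or an increase.
Calls follow the curve class and fit quality: every row here is inconclusive, covering signal-raising curves and weak, poorly fitted, partial or highest-dose-only inhibition curves.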

Values are in µM.
All entries here are filed as inconclusive.
These entries are mostly ones the record files as inconclusive; other results of the assay are not listed here.
A potency from a partial, single-point or poor curve is only a rough figure.

For CC[C@H]1OC(=O)[C@H](C)[C@@H](O[C@H]2C[C@@](C)(OC)[C@@H](O)[C@H](C)O2)C(C)[C@@H](O[C@@H]2O[C@H](C)C[C@H](N(C)C)[C@@H]2O)[C@](C)(OC)C[C@@H](C)C(=O)[C@H](C)[C@@H](O)[C@]1(C)O (stereo partly drawn) [3D7] the result was Potency 11.22 µM (inhibitor, partial curve).
For CC[C@H]1OC(=O)[C@H](C)[C@@H](O[C@H]2C[C@@](C)(OC)[C@@H](O)[C@H](C)O2)C(C)[C@@H](O[C@@H]2O[C@H](C)C[C@H](N(C)C)[C@@H]2O)[C@](C)(OC)C[C@@H](C)C(=O)[C@H](C)[C@@H](O)[C@]1(C)O (stereo partly drawn) [CP325] the result was Potency 3.013 µM (inhibitor, partial curve, poor fit).
For CC[C@H]1OC(=O)[C@H](C)[C@@H](O[C@H]2C[C@@](C)(OC)[C@@H](O)[C@H](C)O2)C(C)[C@@H](O[C@@H]2O[C@H](C)C[C@H](N(C)C)[C@@H]2O)[C@](C)(OC)C[C@@H](C)C(=O)[C@H](C)[C@@H](O)[C@]1(C)O (stereo partly drawn) [HB3] the result was Potency 10 µM (inhibitor, partial curve).
For CC[C@H]1OC(=O)[C@H](C)[C@@H](O[C@H]2C[C@@](C)(OC)[C@@H](O)[C@H](C)O2)C(C)[C@@H](O[C@@H]2O[C@H](C)C[C@H](N(C)C)[C@@H]2O)[C@](C)(OC)C[C@@H](C)C(=O)[C@H](C)[C@@H](O)[C@]1(C)O (stereo partly drawn) [CP297] the result was Potency 0.1901 µM (inhibitor, full curve, poor fit).
For CC[C@H]1OC(=O)[C@H](C)[C@@H](O[C@H]2C[C@@](C)(OC)[C@@H](O)[C@H](C)O2)C(C)[C@@H](O[C@@H]2O[C@H](C)C[C@H](N(C)C)[C@@H]2O)[C@](C)(OC)C[C@@H](C)C(=O)[C@H](C)[C@@H](O)[C@]1(C)O (stereo partly drawn) [GB4] the result was Potency 10.69 µM (inhibitor, partial curve, poor fit).
For CC[C@H]1OC(=O)[C@H](C)[C@@H](O[C@H]2C[C@@](C)(OC)[C@@H](O)[C@H](C)O2)C(C)[C@@H](O[C@@H]2O[C@H](C)C[C@H](N(C)C)[C@@H]2O)[C@](C)(OC)C[C@@H](C)C(=O)[C@H](C)[C@@H](O)[C@]1(C)O (stereo partly drawn) [AS120] the result was Potency 3.162 µM (inhibitor, single point).
For CC[C@H]1OC(=O)[C@H](C)[C@@H](O[C@H]2C[C@@](C)(OC)[C@@H](O)[C@H](C)O2)C(C)[C@@H](O[C@@H]2O[C@H](C)C[C@H](N(C)C)[C@@H]2O)[C@](C)(OC)C[C@@H](C)C(=O)[C@H](C)[C@@H](O)[C@]1(C)O (stereo partly drawn) [CP250] the result was Potency 17.78 µM (inhibitor, single point).
For CC[C@H]1OC(=O)[C@H](C)[C@@H](O[C@H]2C[C@@](C)(OC)[C@@H](O)[C@H](C)O2)C(C)[C@@H](O[C@@H]2O[C@H](C)C[C@H](N(C)C)[C@@H]2O)[C@](C)(OC)C[C@@H](C)C(=O)[C@H](C)[C@@H](O)[C@]1(C)O (stereo partly drawn) [CP194] the result was Potency 15.1 µM (inhibitor, partial curve, poor fit).
For CC[C@H]1OC(=O)[C@H](C)[C@@H](O[C@H]2C[C@@](C)(OC)[C@@H](O)[C@H](C)O2)C(C)[C@@H](O[C@@H]2O[C@H](C)C[C@H](N(C)C)[C@@H]2O)[C@](C)(OC)C[C@@H](C)C(=O)[C@H](C)[C@@H](O)[C@]1(C)O (stereo partly drawn) [CP262] the result was Potency 19.01 µM (inhibitor, single point).
For CC[C@H]1OC(=O)[C@H](C)[C@@H](O[C@H]2C[C@@](C)(OC)[C@@H](O)[C@H](C)O2)C(C)[C@@H](O[C@@H]2O[C@H](C)C[C@H](N(C)C)[C@@H]2O)[C@](C)(OC)C[C@@H](C)C(=O)[C@H](C)[C@@H](O)[C@]1(C)O (stereo partly drawn) [CP217] the result was Potency 11.22 µM (inhibitor, partial curve).
For CC[C@H]1OC(=O)[C@H](C)[C@@H](O[C@H]2C[C@@](C)(OC)[C@@H](O)[C@H](C)O2)C(C)[C@@H](O[C@@H]2O[C@H](C)C[C@H](N(C)C)[C@@H]2O)[C@](C)(OC)C[C@@H](C)C(=O)[C@H](C)[C@@H](O)[C@]1(C)O (stereo partly drawn) [Dd2] the result was Potency 1.259 µM (inhibitor, full curve, poor fit).
For CC[C@H]1OC(=O)[C@H](C)[C@@H](O[C@H]2C[C@@](C)(OC)[C@@H](O)[C@H](C)O2)C(C)[C@@H](O[C@@H]2O[C@H](C)C[C@H](N(C)C)[C@@H]2O)[C@](C)(OC)C[C@@H](C)C(=O)[C@H](C)[C@@H](O)[C@]1(C)O (stereo partly drawn) [CP329] the result was Potency 1.694 µM (inhibitor, partial curve).
For CC[C@H]1OC(=O)[C@H](C)[C@@H](O[C@H]2C[C@@](C)(OC)[C@@H](O)[C@H](C)O2)C(C)[C@@H](O[C@@H]2O[C@H](C)C[C@H](N(C)C)[C@@H]2O)[C@](C)(OC)C[C@@H](C)C(=O)[C@H](C)[C@@H](O)[C@]1(C)O (stereo partly drawn) [PC26] the result was Potency 9.528 µM (inhibitor, single point).
For CC[C@H]1OC(=O)[C@H](C)[C@@H](O[C@H]2C[C@@](C)(OC)[C@@H](O)[C@H](C)O2)C(C)[C@@H](O[C@@H]2O[C@H](C)C[C@H](N(C)C)[C@@H]2O)[C@](C)(OC)C[C@@H](C)C(=O)[C@H](C)[C@@H](O)[C@]1(C)O (stereo partly drawn) [CP211] the result was Potency 3.381 µM (inhibitor, partial curve, poor fit).
For CC[C@H]1OC(=O)[C@H](C)[C@@H](O[C@H]2C[C@@](C)(OC)[C@@H](O)[C@H](C)O2)C(C)[C@@H](O[C@@H]2O[C@H](C)C[C@H](N(C)C)[C@@H]2O)[C@](C)(OC)C[C@@H](C)C(=O)[C@H](C)[C@@H](O)[C@]1(C)O (stereo partly drawn) [CP215] the result was Potency 19.01 µM (inhibitor, partial curve, poor fit).

Repeated from the top, 2 entries:

| SMILES | setting | Potency (µM) | remark |
|---|---|---|---|
| `CC[C@H]1OC(=O)[C@H](C)[C@@H](O[C@H]2C[C@@](C)(OC)[C@@H](O)[C@H](C)O2)C(C)[C@@H](O[C@@H]2O[C@H](C)C[C@H](N(C)C)[C@@H]2O)[C@](C)(OC)C[C@@H](C)C(=O)[C@H](C)[C@@H](O)[C@]1(C)O` (stereo partly drawn) | 3D7 | 11.22 | inhibitor, partial curve |
| `CC[C@H]1OC(=O)[C@H](C)[C@@H](O[C@H]2C[C@@](C)(OC)[C@@H](O)[C@H](C)O2)C(C)[C@@H](O[C@@H]2O[C@H](C)C[C@H](N(C)C)[C@@H]2O)[C@](C)(OC)C[C@@H](C)C(=O)[C@H](C)[C@@H](O)[C@]1(C)O` (stereo partly drawn) | CP325 | 3.013 | inhibitor, partial curve, poor fit |

Data taken from PubChem BioAssay AID504749, deposited by NCATS (2011).